Measurements: the supplement of paper PMC10849652
The list shows a part of the results.

The chains behind the UniProt entries cited, without tags or fusion partners. Where a name states a change or a piece, a line headed by the entry shows the natural chain unless it says otherwise.
UniProt P25789: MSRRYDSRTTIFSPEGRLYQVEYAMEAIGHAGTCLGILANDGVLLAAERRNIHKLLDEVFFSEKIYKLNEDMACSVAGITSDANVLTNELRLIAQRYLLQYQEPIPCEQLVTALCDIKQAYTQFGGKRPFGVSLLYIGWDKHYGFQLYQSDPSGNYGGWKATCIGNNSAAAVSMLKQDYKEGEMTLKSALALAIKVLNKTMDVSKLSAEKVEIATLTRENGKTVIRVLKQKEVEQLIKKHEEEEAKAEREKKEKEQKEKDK
UniProt Q9H974: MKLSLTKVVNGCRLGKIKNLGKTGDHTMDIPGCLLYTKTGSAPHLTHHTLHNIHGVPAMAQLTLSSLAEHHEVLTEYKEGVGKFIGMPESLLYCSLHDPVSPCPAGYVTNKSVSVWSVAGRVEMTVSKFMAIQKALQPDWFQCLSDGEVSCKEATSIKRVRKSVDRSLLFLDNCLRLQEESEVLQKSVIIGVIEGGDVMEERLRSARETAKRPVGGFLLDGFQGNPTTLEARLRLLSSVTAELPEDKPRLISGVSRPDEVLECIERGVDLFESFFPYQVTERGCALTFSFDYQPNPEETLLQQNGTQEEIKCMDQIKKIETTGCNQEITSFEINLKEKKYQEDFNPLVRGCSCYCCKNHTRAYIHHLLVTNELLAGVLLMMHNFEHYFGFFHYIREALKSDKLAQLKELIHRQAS
UniProt P18031: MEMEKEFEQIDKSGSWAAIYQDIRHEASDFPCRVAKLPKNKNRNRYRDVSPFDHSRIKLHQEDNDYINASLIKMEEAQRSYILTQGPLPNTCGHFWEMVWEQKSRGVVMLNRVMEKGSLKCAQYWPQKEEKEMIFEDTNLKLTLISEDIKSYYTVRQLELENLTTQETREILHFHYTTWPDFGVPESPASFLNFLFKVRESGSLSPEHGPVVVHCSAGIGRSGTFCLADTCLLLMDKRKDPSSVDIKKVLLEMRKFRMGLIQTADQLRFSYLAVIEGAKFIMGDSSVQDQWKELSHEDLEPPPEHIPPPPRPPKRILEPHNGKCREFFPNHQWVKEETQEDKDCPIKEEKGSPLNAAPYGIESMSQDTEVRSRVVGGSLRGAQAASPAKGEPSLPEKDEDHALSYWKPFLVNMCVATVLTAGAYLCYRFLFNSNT
UniProt P07602: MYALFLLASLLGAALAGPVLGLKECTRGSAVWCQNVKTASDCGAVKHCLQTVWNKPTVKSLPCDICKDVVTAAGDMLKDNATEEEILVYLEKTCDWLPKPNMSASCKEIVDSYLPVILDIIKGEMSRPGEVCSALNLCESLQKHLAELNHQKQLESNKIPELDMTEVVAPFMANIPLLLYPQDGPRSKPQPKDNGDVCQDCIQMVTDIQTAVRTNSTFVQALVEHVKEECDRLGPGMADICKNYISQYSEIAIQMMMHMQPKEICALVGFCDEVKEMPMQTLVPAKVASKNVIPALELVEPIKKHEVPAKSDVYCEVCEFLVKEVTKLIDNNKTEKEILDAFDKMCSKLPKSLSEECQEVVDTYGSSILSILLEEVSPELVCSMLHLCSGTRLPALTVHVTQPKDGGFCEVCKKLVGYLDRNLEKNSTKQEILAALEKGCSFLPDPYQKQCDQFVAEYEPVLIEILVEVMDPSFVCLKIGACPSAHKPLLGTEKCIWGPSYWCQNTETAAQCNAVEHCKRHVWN
UniProt Q96C36: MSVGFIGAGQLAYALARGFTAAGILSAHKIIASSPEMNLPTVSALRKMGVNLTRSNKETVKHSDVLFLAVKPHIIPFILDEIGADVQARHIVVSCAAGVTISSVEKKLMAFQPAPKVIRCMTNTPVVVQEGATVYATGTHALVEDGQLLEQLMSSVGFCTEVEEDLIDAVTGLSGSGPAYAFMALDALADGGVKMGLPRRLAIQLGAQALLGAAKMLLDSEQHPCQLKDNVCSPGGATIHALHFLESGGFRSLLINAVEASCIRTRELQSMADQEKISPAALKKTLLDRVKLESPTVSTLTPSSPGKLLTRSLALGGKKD
UniProt Q5JS54: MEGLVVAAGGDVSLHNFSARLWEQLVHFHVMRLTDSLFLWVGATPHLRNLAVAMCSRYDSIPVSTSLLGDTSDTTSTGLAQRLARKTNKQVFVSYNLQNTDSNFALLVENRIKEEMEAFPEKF
UniProt P25786: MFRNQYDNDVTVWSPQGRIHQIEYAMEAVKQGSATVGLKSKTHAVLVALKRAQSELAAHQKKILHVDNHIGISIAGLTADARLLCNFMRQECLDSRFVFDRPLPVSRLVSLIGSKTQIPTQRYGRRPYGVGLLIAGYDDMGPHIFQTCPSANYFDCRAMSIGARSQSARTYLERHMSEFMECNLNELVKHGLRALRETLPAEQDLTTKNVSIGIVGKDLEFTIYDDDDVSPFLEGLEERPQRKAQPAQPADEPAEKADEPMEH
UniProt P20962: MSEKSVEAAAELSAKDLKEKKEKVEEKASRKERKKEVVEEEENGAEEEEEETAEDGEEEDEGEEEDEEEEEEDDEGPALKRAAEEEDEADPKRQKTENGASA
UniProt Q12974: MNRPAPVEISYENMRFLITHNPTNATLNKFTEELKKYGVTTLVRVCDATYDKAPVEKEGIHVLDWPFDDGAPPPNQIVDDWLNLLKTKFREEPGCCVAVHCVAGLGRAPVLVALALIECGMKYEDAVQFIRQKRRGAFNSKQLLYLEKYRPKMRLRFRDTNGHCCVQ
UniProt P17980, whole entry, looked up: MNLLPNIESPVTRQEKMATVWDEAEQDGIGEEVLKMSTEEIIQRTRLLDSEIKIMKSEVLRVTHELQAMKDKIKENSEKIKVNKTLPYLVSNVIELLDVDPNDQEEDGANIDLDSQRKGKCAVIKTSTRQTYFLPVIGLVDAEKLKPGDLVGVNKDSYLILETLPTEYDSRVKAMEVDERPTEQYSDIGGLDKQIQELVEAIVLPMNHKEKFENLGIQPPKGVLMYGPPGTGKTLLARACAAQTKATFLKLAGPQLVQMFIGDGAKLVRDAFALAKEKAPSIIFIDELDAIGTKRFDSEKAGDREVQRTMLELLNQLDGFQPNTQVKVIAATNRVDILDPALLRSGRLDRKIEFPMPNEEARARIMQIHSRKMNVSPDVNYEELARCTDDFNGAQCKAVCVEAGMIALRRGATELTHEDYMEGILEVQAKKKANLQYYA
UniProt Q6GMV3: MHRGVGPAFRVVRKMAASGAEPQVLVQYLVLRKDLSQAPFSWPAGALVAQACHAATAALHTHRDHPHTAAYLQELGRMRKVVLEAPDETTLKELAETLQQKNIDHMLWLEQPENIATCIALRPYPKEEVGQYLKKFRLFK
UniProt O00487, whole entry, looked up: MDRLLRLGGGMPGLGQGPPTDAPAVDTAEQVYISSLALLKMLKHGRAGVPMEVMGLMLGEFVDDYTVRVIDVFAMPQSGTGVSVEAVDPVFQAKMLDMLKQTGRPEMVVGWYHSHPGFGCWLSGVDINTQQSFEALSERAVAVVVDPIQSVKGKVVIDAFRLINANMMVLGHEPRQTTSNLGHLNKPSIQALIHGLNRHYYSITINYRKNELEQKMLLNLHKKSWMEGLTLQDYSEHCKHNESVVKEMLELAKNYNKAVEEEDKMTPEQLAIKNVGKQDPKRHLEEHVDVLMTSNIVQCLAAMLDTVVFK
UniProt Q8TB72: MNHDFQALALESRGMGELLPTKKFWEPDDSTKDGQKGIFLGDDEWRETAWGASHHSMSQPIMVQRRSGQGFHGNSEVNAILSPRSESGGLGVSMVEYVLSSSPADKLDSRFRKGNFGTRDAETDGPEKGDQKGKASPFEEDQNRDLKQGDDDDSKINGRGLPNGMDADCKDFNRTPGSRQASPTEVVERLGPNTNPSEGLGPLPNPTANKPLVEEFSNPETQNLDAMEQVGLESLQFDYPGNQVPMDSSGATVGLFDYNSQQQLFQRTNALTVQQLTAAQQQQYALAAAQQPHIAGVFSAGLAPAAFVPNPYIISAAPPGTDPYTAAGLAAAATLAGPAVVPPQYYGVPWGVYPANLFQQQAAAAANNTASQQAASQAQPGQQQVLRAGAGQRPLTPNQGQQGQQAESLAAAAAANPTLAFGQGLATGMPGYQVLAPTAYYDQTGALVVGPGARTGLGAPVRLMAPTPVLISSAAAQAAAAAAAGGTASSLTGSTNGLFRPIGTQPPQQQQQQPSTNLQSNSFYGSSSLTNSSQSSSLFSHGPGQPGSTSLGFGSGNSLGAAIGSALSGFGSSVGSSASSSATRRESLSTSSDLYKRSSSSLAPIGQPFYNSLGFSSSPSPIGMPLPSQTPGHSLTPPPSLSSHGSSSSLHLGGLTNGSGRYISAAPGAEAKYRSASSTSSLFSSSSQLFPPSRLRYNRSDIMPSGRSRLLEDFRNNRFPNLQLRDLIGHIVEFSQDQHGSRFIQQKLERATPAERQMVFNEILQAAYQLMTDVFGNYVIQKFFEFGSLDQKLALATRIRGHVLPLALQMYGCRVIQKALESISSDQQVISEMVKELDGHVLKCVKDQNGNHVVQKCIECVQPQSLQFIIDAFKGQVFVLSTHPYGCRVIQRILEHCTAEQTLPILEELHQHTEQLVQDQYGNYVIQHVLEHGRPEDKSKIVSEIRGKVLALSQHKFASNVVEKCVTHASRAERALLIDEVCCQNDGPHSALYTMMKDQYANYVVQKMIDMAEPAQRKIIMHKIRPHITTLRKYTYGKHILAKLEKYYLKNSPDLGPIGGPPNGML
UniProt Q9Y3E5: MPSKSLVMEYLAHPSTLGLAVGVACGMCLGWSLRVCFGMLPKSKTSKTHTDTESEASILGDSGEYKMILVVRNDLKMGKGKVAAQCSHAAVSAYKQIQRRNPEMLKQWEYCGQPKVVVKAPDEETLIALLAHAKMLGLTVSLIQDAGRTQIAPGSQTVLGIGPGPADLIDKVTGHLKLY
UniProt O00232: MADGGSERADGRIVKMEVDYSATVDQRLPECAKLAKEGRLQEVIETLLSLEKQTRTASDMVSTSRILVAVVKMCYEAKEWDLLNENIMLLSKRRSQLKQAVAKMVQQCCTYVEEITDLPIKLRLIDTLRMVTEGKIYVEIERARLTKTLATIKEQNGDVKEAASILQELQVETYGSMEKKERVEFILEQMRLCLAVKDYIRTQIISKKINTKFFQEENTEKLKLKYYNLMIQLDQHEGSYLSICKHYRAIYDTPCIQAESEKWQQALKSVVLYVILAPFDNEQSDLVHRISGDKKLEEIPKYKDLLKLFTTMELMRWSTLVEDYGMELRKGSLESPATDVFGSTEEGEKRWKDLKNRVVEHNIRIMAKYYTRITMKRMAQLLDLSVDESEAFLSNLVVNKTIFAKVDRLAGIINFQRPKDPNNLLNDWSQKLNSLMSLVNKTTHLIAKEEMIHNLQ
UniProt P25788: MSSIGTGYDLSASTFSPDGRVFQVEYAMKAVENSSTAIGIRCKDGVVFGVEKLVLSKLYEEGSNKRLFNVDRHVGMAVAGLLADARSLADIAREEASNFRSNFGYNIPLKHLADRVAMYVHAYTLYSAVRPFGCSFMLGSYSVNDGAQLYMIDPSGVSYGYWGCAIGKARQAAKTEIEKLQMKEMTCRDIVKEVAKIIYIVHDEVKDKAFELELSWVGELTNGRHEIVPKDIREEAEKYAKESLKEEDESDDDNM
UniProt P48556: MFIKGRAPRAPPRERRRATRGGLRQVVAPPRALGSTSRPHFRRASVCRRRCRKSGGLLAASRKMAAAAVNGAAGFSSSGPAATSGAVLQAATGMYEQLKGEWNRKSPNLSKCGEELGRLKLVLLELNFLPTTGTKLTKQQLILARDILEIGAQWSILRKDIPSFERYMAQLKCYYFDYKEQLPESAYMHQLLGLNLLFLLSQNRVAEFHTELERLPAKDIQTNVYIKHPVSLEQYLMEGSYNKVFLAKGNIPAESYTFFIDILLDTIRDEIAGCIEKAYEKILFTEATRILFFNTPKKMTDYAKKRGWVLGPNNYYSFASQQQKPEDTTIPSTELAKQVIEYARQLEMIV
UniProt Q05209: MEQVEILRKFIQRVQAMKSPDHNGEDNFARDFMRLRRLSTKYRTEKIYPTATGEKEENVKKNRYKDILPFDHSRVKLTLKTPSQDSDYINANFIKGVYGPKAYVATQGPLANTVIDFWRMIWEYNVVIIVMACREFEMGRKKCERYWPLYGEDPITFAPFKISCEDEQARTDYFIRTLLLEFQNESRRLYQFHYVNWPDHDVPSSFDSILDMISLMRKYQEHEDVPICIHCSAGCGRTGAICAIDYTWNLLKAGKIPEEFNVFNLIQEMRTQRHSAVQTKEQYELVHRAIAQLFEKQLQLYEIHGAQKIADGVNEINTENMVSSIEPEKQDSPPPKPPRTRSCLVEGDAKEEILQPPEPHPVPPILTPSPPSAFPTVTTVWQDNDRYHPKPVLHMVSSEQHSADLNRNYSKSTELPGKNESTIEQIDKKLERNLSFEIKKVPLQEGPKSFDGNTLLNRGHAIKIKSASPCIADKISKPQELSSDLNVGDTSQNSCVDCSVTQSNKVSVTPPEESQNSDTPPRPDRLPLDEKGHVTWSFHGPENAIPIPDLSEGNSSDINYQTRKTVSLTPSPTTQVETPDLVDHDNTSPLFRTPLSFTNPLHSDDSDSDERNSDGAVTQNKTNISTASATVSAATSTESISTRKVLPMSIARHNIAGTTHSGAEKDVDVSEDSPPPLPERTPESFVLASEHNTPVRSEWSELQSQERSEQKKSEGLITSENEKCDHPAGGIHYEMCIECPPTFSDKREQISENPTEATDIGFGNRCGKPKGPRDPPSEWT

Columns and labels:
Test in all cases: log2 fold change, soluble protein after heating vs DMSO (PISA); higher = thermal stabilisation; K562 cells, 10 uM, 30 min; active = over 0.2 and 3.5 SD of the protein, either way, in both replicates (recomputed)
saracatinib = compound: CN1CCN(CCOc2cc(OC3CCOCC3)c3c(Nc4c(Cl)ccc5c4OCO5)ncnc3c2)CC1 [saracatinib]
Method in brief: (§1)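 Aliquots of K562 cells (2×10^6 cells/mL) treated with 10 μM compound for 30 min were heated for 3 min over 48°C-58°C. After pooling and extraction in PBS with 0.5% NP-40 at 4°C, soluble protein from a 21,000xg, 90 min spin was quantified by TMTpro 16plex LC-MS/MS with channel sums equalised. Thermal stability is expressed against control samples, from duplicates, as a log2 fold change.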

sotrastaurin = compound: CN1CCN(c2nc(C3=C(c4c[nH]c5ccccc45)C(=O)NC3=O)c3ccccc3n2)CC1 [sotrastaurin]
Method in brief: as §1

alvocidib = compound: CN1CC[C@H](c2c(O)cc(O)c3c(=O)cc(-c4ccccc4Cl)oc23)[C@H](O)C1 [alvocidib]
Method in brief: as §1

Tubastatin A = compound: CN1CCc2c(c3ccccc3n2Cc2ccc(C(=O)NO)cc2)C1 [Tubastatin A]
Method in brief: as §1

[1] = compound: CNC(=O)C1=CC=CC=C1NC2=NC(=NC=C2Cl)NC3=C(C=C(C=C3)N4CCOCC4)OC
Method in brief: as §1

defactinib = compound: CNC(=O)c1ccc(Nc2ncc(C(F)(F)F)c(NCc3nccnc3N(C)S(C)(=O)=O)n2)cc1 [defactinib]
Method in brief: as §1

rucaparib = compound: CNCc1ccc(-c2[nH]c3cc(F)cc4c3c2CCNC4=O)cc1 [rucaparib]
Method in brief: as §1

[2] = compound: CNc1nc(-c2ccc3c(N)n[nH]c3c2)cc(N2C[C@@H](C(=O)NC3CCCCC3)CC[C@H]2C)n1
Method in brief: as §1

encorafenib = compound: COC(=O)N[C@@H](C)CNc1nccc(-c2cn(C(C)C)nc2-c2cc(Cl)cc(NS(C)(=O)=O)c2F)n1 [encorafenib]
Method in brief: as §1

[3] = compound: COC(=O)[C@H](CCSC)NC(=O)C1=C(C=C(C=C1)NC[C@H](CS)N)C2=CC=CC=C2
Method in brief: as §1

Measured: log2 fold change

PSMA4 (UniProt P25789)
inactive: saracatinib 0.002 | sotrastaurin 0.004 | alvocidib 0.081 | Tubastatin A -0.034 | [1] -0.004 | defactinib 0.074 | rucaparib -0.006 | [2] -0.016 | encorafenib 0.025 | [3] 0.02

PSME2 (UniProt Q9UL46)
inactive: saracatinib 0.023 | sotrastaurin -0.014 | alvocidib -0.015 | Tubastatin A -0.144 | [1] -0.016 | defactinib 0.032 | rucaparib -0.069 | [2] -0.049 | encorafenib 0.033 | [3] 0.047

QTRT2 isoform 4 (UniProt Q9H974)
inactive: saracatinib 0.025 | sotrastaurin 0.04 | alvocidib -0.03 | Tubastatin A -0.009 | [1] -0.028 | defactinib -0.031 | rucaparib 0.036 | [2] -0.026 | encorafenib -0.013 | [3] -0.003

PTPN1 (UniProt P18031)
inactive: saracatinib -0.142 | sotrastaurin -0.194 | alvocidib 0.032 | Tubastatin A 0.081 | [1] 0.001 | defactinib -0.073 | rucaparib 0.208 | [2] 0.099 | encorafenib 0.206 | [3] -0.16

PSAP isoform 3 (UniProt P07602)
inactive: saracatinib -0.049 | sotrastaurin -0.019 | alvocidib 0.025 | Tubastatin A 0.024 | [1] 0.092 | defactinib 0.044 | rucaparib -0.131 | [2] -0.034 | encorafenib 0.039 | [3] 0.018

Reprinted at random: 2 entries already listed
PSAP isoform 3 (UniProt P07602)
inactive: saracatinib -0.049 | sotrastaurin -0.019 | alvocidib 0.025 | Tubastatin A 0.024 | [1] 0.092 | defactinib 0.044 | rucaparib -0.131 | [2] -0.034 | encorafenib 0.039 | [3] 0.018

QTRT2 isoform 4 (UniProt Q9H974)
inactive: saracatinib 0.025 | sotrastaurin 0.04 | alvocidib -0.03 | Tubastatin A -0.009 | [1] -0.028 | defactinib -0.031 | rucaparib 0.036 | [2] -0.026 | encorafenib -0.013 | [3] -0.003

Going on with the list.

PYCR2 (UniProt Q96C36)
inactive: saracatinib 0.069 | sotrastaurin 0.015 | alvocidib -0.031 | Tubastatin A -0.049 | [1] -0.006 | defactinib -0.012 | rucaparib 0.004 | [2] 0.014 | encorafenib -0.014 | [3] 0.002

PSMG4 isoform 2 (UniProt Q5JS54)
inactive: saracatinib -0.053 | sotrastaurin -0.173 | alvocidib 0.161 | Tubastatin A -0.017 | [1] 0.027 | defactinib 0 | rucaparib -0.106 | [2] -0.012 | encorafenib -0.026 | [3] 0.069

PSMA1 isoform 2 (UniProt P25786)
inactive: saracatinib 0.021 | sotrastaurin 0.008 | alvocidib 0.075 | Tubastatin A -0.074 | [1] 0.016 | defactinib 0.047 | rucaparib -0.003 | [2] -0.014 | encorafenib 0.012 | [3] 0.025

PTMS (UniProt P20962)
inactive: saracatinib 0.035 | sotrastaurin -0.003 | alvocidib 0 | Tubastatin A 0.032 | [1] -0.008 | defactinib -0.047 | rucaparib -0.038 | [2] -0.028 | encorafenib -0.031 | [3] -0.011

QSOX1 (UniProt O00391)
inactive: saracatinib 0.122 | sotrastaurin 0.137 | alvocidib -0.066 | Tubastatin A 0.083 | [1] -0.038 | defactinib -0.038 | rucaparib 0.068 | [2] -0.104 | encorafenib -0.114 | [3] -0.003

PSMG2 (UniProt Q969U7)
inactive: saracatinib 0.021 | sotrastaurin 0.007 | alvocidib -0.03 | Tubastatin A 0.001 | [1] 0.121 | defactinib -0.002 | rucaparib -0.042 | [2] -0.038 | encorafenib -0.011 | [3] 0.019

PSRC1 (UniProt Q6PGN9)
inactive: saracatinib -0.064 | sotrastaurin 0.003 | alvocidib 0.238 | Tubastatin A 0.088 | [1] 0.029 | defactinib 0.021 | rucaparib 0.036 | [2] -0.022 | encorafenib -0.026 | [3] -0.009

PTP4A2 (UniProt Q12974)
active: alvocidib -0.332
inactive: saracatinib -0.038 | sotrastaurin 0.107 | Tubastatin A 0.057 | [1] -0.1 | defactinib -0.213 | rucaparib -0.143 | [2] -0.066 | encorafenib 0.008 | [3] 0.117

PSMC3 (UniProt P17980)
inactive: saracatinib -0.043 | sotrastaurin -0.035 | Tubastatin A 0.011 | [1] 0 | defactinib 0.06 | rucaparib 0.033 | [2] 0.003 | encorafenib 0.026 | [3] 0.004

PTDSS1 (UniProt P48651)
inactive: saracatinib -0.011 | sotrastaurin 0.006 | Tubastatin A 0.048 | [1] -0.065 | defactinib 0.13 | rucaparib 0.292 | [2] 0.07 | encorafenib 0.224 | [3] 0.01

PSAT1 (UniProt Q9Y617)
inactive: saracatinib 0.072 | sotrastaurin 0.011 | alvocidib 0.021 | Tubastatin A -0.014 | [1] -0.014 | defactinib 0.015 | rucaparib -0.052 | [2] -0.011 | encorafenib -0.015 | [3] 0.045

PRXL2A (UniProt Q9BRX8)
inactive: saracatinib 0.177 | sotrastaurin 0.071 | alvocidib -0.018 | Tubastatin A 0.044 | [1] -0.125 | defactinib -0.039 | rucaparib -0.128 | [2] -0.133 | encorafenib -0.054 | [3] -0.119

PSEN1 (UniProt P49768)
inactive: saracatinib -0.019 | sotrastaurin 0.164 | alvocidib -0.083 | Tubastatin A -0.024 | defactinib -0.089 | rucaparib -0.017 | [2] -0.05 | encorafenib -0.021 | [3] 0.037

PTRHD1 (UniProt Q6GMV3)
inactive: saracatinib -0.057 | sotrastaurin 0.061 | Tubastatin A 0.052 | [1] 0.025 | defactinib 0 | rucaparib -0.015 | [2] -0.022 | encorafenib -0.064 | [3] 0.003

PTPA (UniProt A6PVN8)
inactive: saracatinib 0.21 | sotrastaurin 0.003 | Tubastatin A 0.131 | [1] -0.133 | defactinib -0.045 | rucaparib 0.072 | [2] -0.008 | encorafenib 0.077 | [3] 0.039

PTPRN2 isoform 3 (UniProt Q92932)
inactive: saracatinib -0.254 | sotrastaurin 0.243 | alvocidib 0.311 | rucaparib -0.03 | [2] -0.05 | encorafenib -0.072

PSMD14 (UniProt O00487)
inactive: saracatinib -0.055 | sotrastaurin -0.076 | alvocidib 0.067 | Tubastatin A 0.044 | [1] 0.019 | defactinib 0.062 | rucaparib 0.017 | [2] 0.078 | encorafenib 0.066 | [3] 0.014

PUM2 (UniProt Q8TB72)
inactive: saracatinib -0.014 | sotrastaurin 0.022 | alvocidib -0.03 | Tubastatin A -0.011 | [1] 0.001 | defactinib 0.043 | rucaparib 0.092 | [2] -0.137 | encorafenib -0.023 | [3] -0.038

PTRH2 (UniProt Q9Y3E5)
inactive: saracatinib -0.008 | sotrastaurin 0.027 | Tubastatin A -0.052 | [1] 0.148 | defactinib -0.009 | rucaparib -0.002 | [2] -0.051 | encorafenib 0.017 | [3] 0

PSMD12 (UniProt O00232)
inactive: saracatinib -0.024 | sotrastaurin -0.029 | Tubastatin A 0.04 | [1] 0.033 | defactinib 0.048 | rucaparib 0.014 | [2] 0.054 | encorafenib 0.031 | [3] -0.032

PSMD5 (UniProt Q16401)
inactive: saracatinib 0.019 | sotrastaurin -0.014 | Tubastatin A -0.037 | [1] 0.016 | defactinib -0.049 | rucaparib -0.045 | [2] -0.028 | encorafenib 0.008 | [3] 0.031

PYCR1 isoform 3 (UniProt P32322)
inactive: saracatinib 0.045 | sotrastaurin -0.005 | alvocidib -0.037 | Tubastatin A -0.003 | [1] 0.036 | rucaparib 0.018 | [2] 0 | encorafenib -0.029 | [3] -0.016

PSMA3 (UniProt P25788)
inactive: saracatinib 0.012 | sotrastaurin 0.038 | Tubastatin A -0.006 | [1] 0.014 | defactinib 0.048 | rucaparib -0.001 | [2] 0.02 | encorafenib 0.034 | [3] 0

PSMD8 (UniProt P48556)
inactive: saracatinib -0.039 | sotrastaurin -0.032 | Tubastatin A 0.003 | [1] -0.009 | defactinib 0.1 | rucaparib 0.003 | [2] 0.028 | encorafenib 0.041 | [3] 0.043

PTPN12 (UniProt Q05209)
inactive: saracatinib 0.085 | sotrastaurin -0.148 | Tubastatin A 0.064 | [1] 0.063 | defactinib 0.006 | rucaparib 0.047 | [2] -0.04 | encorafenib 0.076 | [3] -0.088

PTGR2 (UniProt Q8N8N7)
inactive: saracatinib 0.021 | sotrastaurin 0.009 | Tubastatin A 0.046 | [1] -0.052 | defactinib -0.025 | rucaparib 0.007 | [2] 0.136 | encorafenib -0.107 | [3] -0.043
